Values quoted from earlier work, collected in publication PMC7470163, “Effects of ticagrelor on the pharmacokinetics of rivaroxaban in rats” (Pharmaceutical Biology, 2020).

Details: co-administration of ticagrelor; ref Teng et al. [2013]; cited from earlier work

## CC(C)c1c(C(=O)Nc2ccccc2)c(-c2ccccc2)c(-c2ccc(F)cc2)n1CC[C@@H](O)C[C@@H](O)CC(=O)O [atorvastatin]
  increase of AUC: 36%
  increase of Cmax: 23%
